Measured values from patent publication US7226992B1, “Mutant Bcl-2 proteins and uses thereof” (Abbott Laboratories, priority 2000, dated 2007).
Not every detail of the peptide structures is certain; ends, links or a residue may be inferred. Residues, ends and D or L forms follow the SMILES beside them. *: point of attachment. FITC = O=C1OC2(c3ccc(O)cc3Oc3cc(O)ccc32)c2ccc(NC(=S)*)cc21

Protein sequences, listed by entry. Tags and fused reporters are not part of them. Chains listed by the source or under a name are the forms on record and can include a tag or linker.
UniProt P10415, with tags, fused parts or gaps with the stated changes: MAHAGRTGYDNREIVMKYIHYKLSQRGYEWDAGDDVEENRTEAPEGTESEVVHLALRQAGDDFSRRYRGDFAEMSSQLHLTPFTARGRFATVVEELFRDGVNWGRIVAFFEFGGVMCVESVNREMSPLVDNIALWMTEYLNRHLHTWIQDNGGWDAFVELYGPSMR

Biological target: T1, Bcl-2/iso1 (Homo sapiens, UniProt P10415, DEL35-91/INS34DVEENRTEAPEGTESE/R110G/T96A)
T1 construct: His tag (pET28b, thrombin-cleavable) (N, cleaved yes); made in house; host or cells: E. coli BL21(DE3)
Experiment: Fluorescence polarization titration of fluoresceinated probe peptides with Bcl-2/iso1
Type: binding
Conditions: read-out: dissociation constants of fluoresceinated peptides from Bcl-2/iso1; fluorescein-labeled probe peptides
Experimental: (3) (FITC)-AAQRYGRELRRMSDEFVR(SEQ ID NO:19). The dissociation constants of these fluoresceinated peptides from Bcl-2/iso1 are ˜20 nM, ˜50 nM, and ˜100 nM, respectively.
All titrations were automated by means of an Abbott clinical diagnostics instrument (IMx, FPIA mode) modified with a special protocol for performing titrations. A complete two-fold dilution series, comprised of twenty separate 2 mL samples, was obtained by delivering appropriate individual aliquots to the first seven tubes, aliquots from an intermediate diluted stock for the next seven, and one more intermediate dilution for the final six. […] The concentrations of the DMSO stock solutions of the peptide were 1–4 mM as determined by Trp absorbance (O.D. 280 nm), Tyr absorbance (O.D. 293), or amino acid analysis. […] Twenty 1.8 uL samples were prepared without fluoresceinatedpeptide and read as blanks. To each tube, 0.2 uL of a Bcl-2, fluoresceinatedpeptide mixture was added; the tubes were incubated for 5 min at 35° C., and then read for total intensity and polarization. […]
Steady state polarization data can be analyzed to extract the fractions of bound and free fluorescent ligand owing to the linear additivity of their anisotropy values, weighted by their respective fractional intensities (Lakowicz, JR. Principles of Fluorescence Spectroscopy. New York, N.Y.: Plenum Press (1983)). […]

## CSCC[C@H](NC(=O)[C@H](CCCNC(=N)N)NC(=O)[C@H](CCCNC(=N)N)NC(=O)[C@H](CC(C)C)NC(=O)[C@H](CCC(=O)O)NC(=O)[C@H](CCCNC(=N)N)NC(=O)CNC(=O)[C@H](Cc1ccc(O)cc1)NC(=O)[C@H](CCCNC(=N)N)NC(=O)[C@H](CCC(N)=O)NC(=O)[C@H](C)NC(=O)[C@H](C)NC(=S)Nc1ccc2c(c1)C(=O)OC21c2ccc(O)cc2Oc2cc(O)ccc21)C(=O)N[C@@H](CO)C(=O)N[C@@H](CC(=O)O)C(=O)N[C@@H](CCC(=O)O)C(=O)N[C@@H](Cc1ccccc1)C(=O)N[C@H](C(=O)N[C@@H](CCCNC(=N)N)C(=O)O)C(C)C [(FITC)-AAQRYGRELRRMSDEFVR] ({FITC}-AAQRYGRELRRMSDEFVR-OH)
  Kd: ~0.1 µM
